The results in this text go back to article PMC12165855.

Chains of the proteins cited; added tags and fusions are not shown. Lines headed by an entry give the natural chain unless they say otherwise; changes in a name come on top.
UniProt P07711: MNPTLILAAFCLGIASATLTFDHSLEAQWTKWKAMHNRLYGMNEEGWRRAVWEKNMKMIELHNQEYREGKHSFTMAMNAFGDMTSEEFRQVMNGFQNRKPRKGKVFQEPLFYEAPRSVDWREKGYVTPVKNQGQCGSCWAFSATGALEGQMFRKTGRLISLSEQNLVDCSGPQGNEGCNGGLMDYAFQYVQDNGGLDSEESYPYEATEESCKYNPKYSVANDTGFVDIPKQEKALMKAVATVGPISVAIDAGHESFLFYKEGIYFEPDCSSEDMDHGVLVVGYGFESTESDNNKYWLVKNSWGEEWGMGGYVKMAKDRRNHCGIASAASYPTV
UniProt Q9BUQ8: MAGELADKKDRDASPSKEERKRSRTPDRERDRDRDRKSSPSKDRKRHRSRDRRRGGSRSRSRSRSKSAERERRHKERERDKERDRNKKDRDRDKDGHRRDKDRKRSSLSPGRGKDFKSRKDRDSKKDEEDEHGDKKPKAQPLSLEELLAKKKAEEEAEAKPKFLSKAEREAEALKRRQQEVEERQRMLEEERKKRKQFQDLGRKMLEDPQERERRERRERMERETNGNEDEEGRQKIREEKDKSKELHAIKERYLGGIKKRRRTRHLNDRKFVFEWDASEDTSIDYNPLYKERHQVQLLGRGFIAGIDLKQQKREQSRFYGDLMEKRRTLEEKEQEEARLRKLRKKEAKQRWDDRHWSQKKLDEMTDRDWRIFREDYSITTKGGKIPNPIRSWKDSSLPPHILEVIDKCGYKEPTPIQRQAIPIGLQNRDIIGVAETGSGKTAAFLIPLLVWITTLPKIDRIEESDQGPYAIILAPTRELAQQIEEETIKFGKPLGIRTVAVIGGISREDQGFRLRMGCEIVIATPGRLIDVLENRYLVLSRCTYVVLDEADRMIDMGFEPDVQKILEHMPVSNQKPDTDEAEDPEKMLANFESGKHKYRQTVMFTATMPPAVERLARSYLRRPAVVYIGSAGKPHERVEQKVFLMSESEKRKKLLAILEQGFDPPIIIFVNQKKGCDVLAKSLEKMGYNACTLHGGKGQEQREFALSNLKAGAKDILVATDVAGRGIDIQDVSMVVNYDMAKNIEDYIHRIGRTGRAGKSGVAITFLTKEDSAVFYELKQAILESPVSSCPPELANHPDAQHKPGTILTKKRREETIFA

No constants are given. Whether binding was seen depends on the method and setting. In cells and extracts the contact can be indirect. These calls come from enrichment with a bait or labelling near it, and not all partners need be listed.

The test addresses cathepsin L (human (endogenous in SUM149)) (UniProt P07711). Nature of the test: affinity purification with mass spectrometry; CTSL immunoprecipitated from SUM149 cells (Dox-inducible shKDM4C #17 and #20 lines without Dox; also #17 with Dox, KDM4C knockdown), on-bead trypsin digest, isotopic labelling, compared to IgG control.

With “DEAD-Box helicase 23 (from UniProt Q9BUQ8 1-820)”, the binding entry is reported as “binds”.

B1: CTS3 cysteine protease inhibitor (protein, UniProt P01034 27-146)
chain: SSPGKPPRLVGGPMDASVEEEGVRRALDFAVGEYNKASNDMYHSRALQVVRARKQIVAGVNYFLDVELGRTTCTKTQPNLDNCPFHDQPHLKRKAFCSFQIYAVPWQGTMTLSKSTCQDA
With B1, the binding entry was “binds”.

B2: grainyhead-like 2 transcription factor (protein, UniProt Q6ISB3 1-625)
chain: MSQESDNNKRLVALVPMPSDPPFNTRRAYTSEDEAWKSYLENPLTAATKAMMSINGDEDSAAALGLLYDYYKVPRDKRLLSVSKASDSQEDQEKRNCLGTSEAQSNLSGGENRVQVLKTVPVNLSLNQDHLENSKREQYSISFPESSAIIPVSGITVVKAEDFTPVFMAPPVHYPRGDGEEQRVVIFEQTQYDVPSLATHSAYLKDDQRSTPDSTYSESFKDAATEKFRSASVGAEEYMYDQTSSGTFQYTLEATKSLRQKQGEGPMTYLNKGQFYAITLSETGDNKCFRHPISKVRSVVMVVFSEDKNRDEQLKYWKYWHSRQHTAKQRVLDIADYKESFNTIGNIEEIAYNAVSFTWDVNEEAKIFITVNCLSTDFSSQKGVKGLPLMIQIDTYSYNNRSNKPIHRAYCQIKVFCDKGAERKIRDEERKQNRKKGKGQASQTQCNSSSDGKLAAIPLQKKSDITYFKTMPDLHSQPVLFIPDVHFANLQRTGQVYYNTDDEREGGSVLVKRMFRPMEEEFGPVPSKQMKEEGTKRVLLYVRKETDDVFDALMLKSPTVKGLMEAISEKYGLPVEKIAKLYKKSKKGILVNMDDNIIEHYSNEDTFILNMESMVEGFKVTLMEI
As to B2, the binding result is “binds”.

B3: CTSB cysteine protease inhibitor (protein, UniProt P04080 1-98)
chain: MMCGAPSATQPATAETQHIADQVRSQLEEKENKKFPVFKAVSFKSQVVAGTNYFIKVHVGDEDFVHLRVFQSLPHENKPLTLSNYQTNKAKHDELTYF
On to B3, for which the binding result is “binds”.
